Experimental data: PubChem BioAssay AID602196 (INSERM, 2012)
Purpose: 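Genes whose knock-down alters cisplatin killing of lung cancer cells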. Cell system: human A549 lung cancer cells. Reagents: siRNA pair against human genes. Timing: 48 h transfection before cisplatin; time from cisplatin to read-out not stated. Challenge: cisplatin at a dose killing half of control-siRNA cells; exact dose and duration not given. Measurement: 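Cisplatin cell death as a shift from the 50% death seen with control siRNA; siRNAs toxic or growth-blocking alone scored 0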. Direction: two-siRNA summed score (-2 to +2): higher = both siRNAs protect from cisplatin killing; -2 means both sensitise; mean protection from cisplatin (shift in death): higher = protection from cisplatin killing. Active means: 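Each siRNA scores 0 if harmful alone by LDH or WST-1, otherwise +1 if it reduces and -1 if it increases cisplatin killing; a gene is active when both siRNAs agree (sum +2 or -2)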. Calls: active = both siRNAs shift cisplatin killing the same way; inactive = no consistent shift, or siRNA harmful alone.
Shown is a random part of about 23,000 reagents tested. 455 of them (2%) were called active. 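Active includes both protection and sensitisation; some change values fall well beyond the stated -50 to +50 range.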 Further read-outs or replicates are left out here. Not given: the amount of reagent.

What did the screen give for OTP (orthopedia homeobox)?
two-siRNA summed score (-2 to +2): 0; mean protection from cisplatin (shift in death) (%): 7.2; outcome: inactive

For CCM2 (CCM2 scaffold protein), how do the results read?
two-siRNA summed score (-2 to +2): 0; mean protection from cisplatin (shift in death) (%): 7.4; outcome: inactive

For EFHC1 (EF-hand domain containing 1), what was measured?
two-siRNA summed score (-2 to +2): 0; mean protection from cisplatin (shift in death) (%): -1.9; outcome: inactive

For LINC02288 (long independently transcribed non-coding RNA 2288), what was measured?
two-siRNA summed score (-2 to +2): 1; mean protection from cisplatin (shift in death) (%): 16.8; outcome: inactive

With LY86 (lymphocyte antigen 86), how do the results read?
two-siRNA summed score (-2 to +2): 0; mean protection from cisplatin (shift in death) (%): 8.7; outcome: inactive

What did the screen give for ECSIT (ECSIT signaling integrator)?
two-siRNA summed score (-2 to +2): 0; mean protection from cisplatin (shift in death) (%): 1.1; outcome: inactive

For RPS2P45 (ribosomal protein S2 pseudogene 45), what was measured?
two-siRNA summed score (-2 to +2): 0; mean protection from cisplatin (shift in death) (%): -1.6; outcome: inactive

How did the screen score CCKBR (cholecystokinin B receptor)?
two-siRNA summed score (-2 to +2): -1; mean protection from cisplatin (shift in death) (%): -25.1; outcome: inactive

For RNF216 (ring finger protein 216), what does the deposit list?
two-siRNA summed score (-2 to +2): 0; mean protection from cisplatin (shift in death) (%): -3.4; outcome: inactive

What is on record for CCDC15 (coiled-coil domain containing 15)?
two-siRNA summed score (-2 to +2): 0; mean protection from cisplatin (shift in death) (%): 4.6; outcome: inactive

What is on record for SIT1 (signaling threshold regulating transmembrane adaptor 1)?
two-siRNA summed score (-2 to +2): 0; mean protection from cisplatin (shift in death) (%): 19.4; outcome: inactive

For LOC440796, what was measured?
two-siRNA summed score (-2 to +2): 0; mean protection from cisplatin (shift in death) (%): 8.2; outcome: inactive

What did the screen give for IQCF3 (IQ motif containing F3)?
two-siRNA summed score (-2 to +2): 1; mean protection from cisplatin (shift in death) (%): 16; outcome: inactive

4 entries from above, set out differently:
{"target gene": "CCDC15 (coiled-coil domain containing 15)", "two-siRNA summed score (-2 to +2)": 0, "mean protection from cisplatin (shift in death) (%)": 4.6, "outcome": "inactive"}
{"target gene": "SIT1 (signaling threshold regulating transmembrane adaptor 1)", "two-siRNA summed score (-2 to +2)": 0, "mean protection from cisplatin (shift in death) (%)": 19.4, "outcome": "inactive"}
{"target gene": "LOC440796", "two-siRNA summed score (-2 to +2)": 0, "mean protection from cisplatin (shift in death) (%)": 8.2, "outcome": "inactive"}
{"target gene": "IQCF3 (IQ motif containing F3)", "two-siRNA summed score (-2 to +2)": 1, "mean protection from cisplatin (shift in death) (%)": 16, "outcome": "inactive"}

Further results follow.
For SLC17A7, what was measured?
two-siRNA summed score (-2 to +2): 0; mean protection from cisplatin (shift in death) (%): 9; outcome: inactive

With USP50 (ubiquitin specific peptidase 50), what does the deposit list?
two-siRNA summed score (-2 to +2): 1; mean protection from cisplatin (shift in death) (%): 8; outcome: inactive

With DENND4C (DENN domain containing 4C), how do the results read?
two-siRNA summed score (-2 to +2): 0; mean protection from cisplatin (shift in death) (%): 7.1; outcome: inactive

How did the screen score LOC402554?
two-siRNA summed score (-2 to +2): 0; mean protection from cisplatin (shift in death) (%): 2; outcome: inactive

How did the screen score DGAT1 (diacylglycerol O-acyltransferase 1)?
two-siRNA summed score (-2 to +2): 1; mean protection from cisplatin (shift in death) (%): 10.3; outcome: inactive

With JMY (junction mediating and regulatory protein, p53 cofactor), what was measured?
two-siRNA summed score (-2 to +2): 0; mean protection from cisplatin (shift in death) (%): 1.9; outcome: inactive

How did the screen score LOC389072?
two-siRNA summed score (-2 to +2): 0; mean protection from cisplatin (shift in death) (%): 1.1; outcome: inactive

For PCDHA4 (protocadherin alpha 4), what was measured?
two-siRNA summed score (-2 to +2): 0; mean protection from cisplatin (shift in death) (%): 6.5; outcome: inactive

With GPR50 (G protein-coupled receptor 50), how do the results read?
two-siRNA summed score (-2 to +2): 0; mean protection from cisplatin (shift in death) (%): -1.9; outcome: inactive

With ARHGAP35 (Rho GTPase activating protein 35), what was measured?
two-siRNA summed score (-2 to +2): 2; mean protection from cisplatin (shift in death) (%): 15.7; outcome: active

With SLC4A2, what was measured?
two-siRNA summed score (-2 to +2): 1; mean protection from cisplatin (shift in death) (%): 12.6; outcome: inactive

How did the screen score ATMIN (ATM interactor)?
two-siRNA summed score (-2 to +2): 0; mean protection from cisplatin (shift in death) (%): 9.5; outcome: inactive

For ARL14EP (ARF like GTPase 14 effector protein), how do the results read?
two-siRNA summed score (-2 to +2): 1; mean protection from cisplatin (shift in death) (%): 16.9; outcome: inactive

With RABEPK (Rab9 effector protein with kelch motifs), what does the deposit list?
two-siRNA summed score (-2 to +2): 0; mean protection from cisplatin (shift in death) (%): -13.3; outcome: inactive

What is on record for UBQLN3 (ubiquilin 3)?
two-siRNA summed score (-2 to +2): 0; mean protection from cisplatin (shift in death) (%): 5.8; outcome: inactive

Which result is listed for NOTO (notochord homeobox)?
two-siRNA summed score (-2 to +2): 0; mean protection from cisplatin (shift in death) (%): -8.9; outcome: inactive

With LOC344741, how do the results read?
two-siRNA summed score (-2 to +2): 0; mean protection from cisplatin (shift in death) (%): 7.9; outcome: inactive

With NTRK3 (neurotrophic receptor tyrosine kinase 3), what does the deposit list?
two-siRNA summed score (-2 to +2): 0; mean protection from cisplatin (shift in death) (%): 14.5; outcome: inactive
